# Reference: PubChem BioAssay AID1347076 (National Center for Advancing Translational Sciences (NCATS), 2019)
# Screen size: about 400,000 compounds; about 13,000 (3.2%) were called active. The inconclusive results got no clear call from the source; some entries with a clear call stand among them for comparison. Calls come from the whole dose curve; as a rule, active = well fitted cell-killing curve with a large enough effect; inconclusive = small, poorly fitted or top-dose-only effect, or effect the other way; inactive = flat fitted curve, though single readings scatter. Potencies beside an inconclusive call are fits to weak or partial responses and may not hold up.
# Assay: qHTS assay for MDR1-selective chemotherapeutics: Primary screen using the drug-selected MDR subline cells KB-V1; note: nearly all actives have a fitted effect of over 60% in size
# Settings: KB-V1 MDR cells viability, CellTiter-Glo, 72 h; activity change, negative = cytotoxicity: at 46.1 µM (top of the series)
# Procedure, shortened: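 Drug-selected KB-V1 cells, grown in DMEM lacking phenol red with 10% FBS, receive compound titrations; after three days at 37 degrees C, surviving cell ATP is quantified by CellTiter-Glo luminescence and responses normalized and curve-fitted.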
# % is set by controls: 0 for no effect and ±100 for the full control effect; potency is the fitted concentration of half-maximal effect.
Compound,"activity change, negative = cytotoxicity",Potency
CCOc1ccc(NC(=O)c2cc3ccccc3cc2O)cc1,inactive: -1.03%,–
CCc1cc(=O)oc2c(C)c(OCC(=O)N3CCCc4ccccc43)ccc12,–,"inconclusive: 23.1 µM [cytotoxic, partial curve, poor fit]"
Cc1cccc(OCC(=O)N2CCN(c3nnc(-c4ccccc4)c4ccccc34)CC2)c1,–,"inconclusive: 4.11 µM [cytotoxic, partial curve]"
COc1cccc(CNC(=O)c2cc3c(=O)n(Cc4cccnc4)ccc3nc2C)c1,inactive: 18.4%,–
CCC(C)(c1nnnn1-c1c(C)cccc1C)N(N=O)c1cccc(C(F)(F)F)c1 (centres undefined),–,active: 16.4 µM
CCOc1ccc(S(=O)(=O)N2CCCC(C(=O)NCc3ccccn3)C2)cc1Cl (centres undefined),–,"inconclusive: 29.1 µM [cytotoxic, single point]"
COc1ccc(-c2oc(/N=C/N3CCOCC3)c(C#N)c2-c2ccc(OC)cc2)cc1,–,"inconclusive: 0.92 µM [cytotoxic, full curve]"
CCOc1ccc(Br)cc1S(=O)(=O)N1CCC(C(=O)O)CC1,–,"inconclusive: 29.1 µM [rising, single point]"
O=C(c1cc(Cl)ccc1Cl)N1CCN(c2ccccn2)CC1,–,"inconclusive: 20.6 µM [cytotoxic, partial curve, poor fit]"
Fc1ccc2[nH]c3c(N4CCN(c5ccccc5)CC4)ncnc3c2c1,–,active: 16.4 µM
CC(C)CNS(=O)(=O)c1ccc(OCC(=O)Nc2ccc3c(c2)OCO3)c(Cl)c1,–,"inconclusive: 8.2 µM [cytotoxic, partial curve, poor fit]"
CCOC(=O)[C@H]1[C@H]2COc3ccc(Cl)cc3[C@@H]2N2C(=O)CN(Cc3ccccc3)C(=O)[C@@]12C,inactive: -6.1%,–
CCc1cccc(NC(c2ccccc2)c2nnc(-c3ccccc3F)o2)c1 (centres undefined),inactive: -15.2%,–
Cc1c(Cl)cccc1NC(=O)Nn1cnnc1,–,"inconclusive: 29.1 µM [rising, partial curve, poor fit]"
COc1ccc(C(=O)OCC(=O)c2ccc(C)c(S(=O)(=O)N3CCOCC3)c2)cc1OC,inactive: -25.9%,–
CCOc1ccc(-c2nc(N)ncc2Oc2ccc(OC)cc2)c(O)c1,–,"inconclusive: 29.1 µM [cytotoxic, partial curve, poor fit]"
O=C(NC1CC1)C1CCN(C2CCN(C(=O)Cc3ccc4c(c3)OCO4)CC2)CC1,–,"inconclusive: 23.1 µM [rising, partial curve, poor fit]"
Cc1c(Cl)cccc1NC(=O)NCCCN1CCCC1=O,–,"inconclusive: 18.4 µM [rising, single point]"
COc1ccc(N2CCN(C(=O)c3c(-c4ccccc4)noc3C)CC2)cc1,inactive: -7.84%,–
CCOP(=O)(c1c(F)c(F)c(F)c(F)c1F)C(O)c1ccccc1 (centres undefined),–,"inconclusive: 29.1 µM [rising, single point]"
Cc1ccc(S(=O)(=O)N2CCC(=O)N([C@H](COCc3cccc(C(F)(F)F)c3)C(C)C)CC2)cc1,–,"inconclusive: 10.3 µM [cytotoxic, partial curve, poor fit]"

# Some of these compounds in order of molecular weight, largest number first.
Compound,"activity change, negative = cytotoxicity",Potency
Cc1cccc(OCC(=O)N2CCN(c3nnc(-c4ccccc4)c4ccccc34)CC2)c1,–,"inconclusive: 4.11 µM [cytotoxic, partial curve]"
COc1ccc(-c2oc(/N=C/N3CCOCC3)c(C#N)c2-c2ccc(OC)cc2)cc1,–,"inconclusive: 0.92 µM [cytotoxic, full curve]"
O=C(c1cc(Cl)ccc1Cl)N1CCN(c2ccccn2)CC1,–,"inconclusive: 20.6 µM [cytotoxic, partial curve, poor fit]"

# More entries follow:

Compound,"activity change, negative = cytotoxicity",Potency
CO/N=C(/CS(=O)(=O)c1ccc(Br)cc1)c1ccc(OC)cc1,–,"inconclusive: 20.6 µM [cytotoxic, single point]"
Cc1cccc(NC(=O)Cc2ccc(NC3=NC4CS(=O)(=O)CC4S3)cc2)c1 (centres undefined),inactive: 10.6%,–
COc1ccccc1NC(=O)Nc1nc(CC(=O)Nc2cc(F)ccc2F)cs1,–,"inconclusive: 8.2 µM [cytotoxic, partial curve]"
CC(=O)N1CCC(C(=O)Nc2nc(-c3ccccc3)ns2)CC1,–,"inconclusive: 23.1 µM [cytotoxic, single point]"
Cc1ccc(NC(=S)NNC(=O)c2ccc(N3CCOCC3)c([N+](=O)[O-])c2)cc1Cl,–,active: 16.4 µM
Cc1ccc(/C=N\NC(=O)Cc2noc3ccccc23)cc1,–,"inconclusive: 20.6 µM [cytotoxic, single point]"
c1ccc(CNc2c(-c3cccc(SC4CCCCC4)c3)nc3ccccn23)cc1,–,inactive
Cc1ccc(C(=O)NC2CCN(CC(=O)Nc3cccc([N+](=O)[O-])c3)CC2)cc1,–,"inconclusive: 8.2 µM [cytotoxic, partial curve]"
COc1cccc(NC(=O)C2(C)CCN2C(=O)CC2CCCC2)c1 (centres undefined),–,active: 16.4 µM
CN(C)CCCN(C(=O)c1ccc(S(=O)(=O)N(C)C2CCCCC2)cc1)c1nc2ccc(Br)cc2s1,–,"inconclusive: 25.9 µM [cytotoxic, partial curve, poor fit]"
COc1cccc(CNc2ncnc3cc(OC)c(OC)cc23)c1,–,"inconclusive: 32.6 µM [cytotoxic, single point]"
CC(C)C[C@H](NC(=O)NCc1ccccc1Cl)C(=O)O,–,"inconclusive: 0.326 µM [rising, full curve, poor fit]"
Cc1ccccc1Nc1c(C)c(C)nc2ncnn12,inactive: 0%,–
C=CCNC(=O)/C(=C\c1ccc2c(c1)OCO2)NC(=O)c1ccc(Br)cc1,–,active: 23.1 µM
COc1ccc(C(=O)COc2nc(C)cc(C)c2C#N)cc1,–,active: 13 µM
CSc1ncnc2c1ncn2CCCNCc1ccccc1,inconclusive: 4.43%,–
CCOC(=O)c1c(CNc2ccncc2)n(C)c2cc(Br)c(O)cc12,–,"inconclusive: 23.1 µM [rising, single point]"
COCCN=c1scc(-c2cc(OC)c(OC)c(OC)c2)n1/N=C/c1c(C)[nH]c2ccccc12,–,"inconclusive: 29.1 µM [cytotoxic, single point]"
CCOC(=O)c1c(CN2CCN(c3ccccc3)CC2)oc2cc(Br)c(O)cc12,–,"inconclusive: 29.1 µM [cytotoxic, single point]"
C(=C\c1ccccc1)/CN1CCN(C(c2ccnc3ccccc23)c2nnnn2C2CCCCC2)CC1 (centres undefined),–,"inconclusive: 23.1 µM [cytotoxic, single point]"
CCN(CC)S(=O)(=O)c1ccc(OC)c(NC(=O)c2ccc([N+](=O)[O-])cc2)c1,inactive: -11%,–
O=C(NCc1ccco1)C1CC(c2ccc(Cl)c(Cl)c2)=NO1 (centres undefined),inactive: -12.5%,–
